# From publication doi:10.1101/2024.02.27.582366
# Results are given in words; binding and its absence hold for the method and conditions named. Binding seen in cells or lysates may run through a third protein. These calls come from enrichment with a bait or labelling near it, and not all partners need be listed. Tags and fused reporters may be left off the sequences shown.
# B1: Solute carrier family 12 member 5 (SLC12A5) (protein, UniProt Q91V14 1-1138)
# chain: MSRRFTVTSLPPAASAASADPESRRHSVADPRRLPREDVKGDGNPKESSPFINSTDTEKGREYDGRNMALFEEEMDTSPMVSSLLSGLANYTNLPQGSREHEEAENNEGGKKKPVQAPRMGTFMGVYLPCLQNIFGVILFLRLTWVVGIAGIMESFCMVFICCSCTMLTAISMSAIATNGVVPAGGSYYMISRSLGPEFGGAVGLCFYLGTTFAGAMYILGTIEILLAYLFPAMAIFKAEDASGEAAAMLNNMRVYGTCVLTCMATVVFVGVKYVNKFALVFLGCVILSILAIYAGVIKSAFDPPNFPICLLGNRTLSRHGFDVCAKLAWEGNETVTTRLWGLFCSSRLLNATCDEYFTRNNVTEIQGIPGAASGLIKENLWSSYLTKGVIVERRGMPSVGLADGTPVDMDHPYVFSDMTSYFTLLVGIYFPSVTGIMAGSNRSGDLRDAQKSIPTGTILAIATTSAVYISSVVLFGACIEGVVLRDKFGEAVNGNLVVGTLAWPSPWVIVIGSFFSTCGAGLQSLTGAPRLLQAISRDGIVPFLQVFGHGKANGEPTWALLLTACICEIGILIASLDEVAPILSMFFLMCYMFVNLACAVQTLLRTPNWRPRFRYYHWTLSFLGMSLCLALMFICSWYYALVAMLIAGLIYKYIEYRGAEKEWGDGIRGLSLSAARYALLRLEEGPPHTKNWRPQLLVLVRVDQDQNVVHPQLLSLTSQLKAGKGLTIVGSVLEGTFLDNHPQAQRAEESIRRLMEAEKVKGFCQVVISSNLRDGVSHLIQSGGLGGLQHNTVLVGWPRNWRQKEDHQTWRNFIELVRETTAGHLALLVTKNVSMFPGNPERFSEGSIDVWWIVHDGGMLMLLPFLLRHHKVWRKCKMRIFTVAQMDDNSIQMKKDLTTFLYHLRITAEVEVVEMHESDISAYTYEKTLVMEQRSQILKQMHLTKNEREREIQSITDESRGSIRRKNPANPRLRLNVPEETACDNEEKPEEEVQLIHDQSAPSCPSSSPSPGEEPEGERETDPEVHLTWTKDKSVAEKNKGPSPVSSEGIKDFFSMKPEWENLNQSNVRRMHTAVRLNEVIVNKSRDAKLVLLNMPGPPRNRNGDENYMEFLEVLTEQLDRVMLVRGGGREVITIYS
# B2: vesicular glutamate transporter 2 (SLC17A6) (protein, UniProt Q8BLE7 1-582)
# chain: MESVKQRILAPGKEGIKNFAGKSLGQIYRVLEKKQDNRETIELTEDGKPLEVPEKKAPLCDCTCFGLPRRYIIAIMSGLGFCISFGIRCNLGVAIVDMVNNSTIHRGGKVIKEKAKFNWDPETVGMIHGSFFWGYIITQIPGGYIASRLAANRVFGAAILLTSTLNMLIPSAARVHYGCVIFVRILQGLVEGVTYPACHGIWSKWAPPLERSRLATTSFCGSYAGAVIAMPLAGILVQYTGWSSVFYVYGSFGMVWYMFWLLVSYESPAKHPTITDEERRYIEESIGESANLLGAMEKFKTPWRKFFTSMPVYAIIVANFCRSWTFYLLLISQPAYFEEVFGFEISKVGMLSAVPHLVMTIIVPIGGQIADFLRSKQILSTTTVRKIMNCGGFGMEATLLLVVGYSHTRGVAISFLVLAVGFSGFAISGFNVNHLDIAPRYASILMGISDGVGTLSGMVCPIIVGAMTKNKSREEWQYVFLIAALVHYGGVIFYALFASGEKQPWADPEETSEEKCGFIHEDELDEETGDITQNYINYGTTKSYGATSQENGGWPNGWEKKEEFVQEGAQDAYTYKDRDDYS
# B3: solute carrier family 12 member 6 (SLC12A6) (protein, UniProt Q924N4 1-1150)
# chain: MHPPEATTKMSSVRFMVTPTKIDDIPGLSDTSPDLSSRSSSRVRFSSRESVPETSRSEPMSELSGATTSLATVALDPSSDRTSNPQDVTEDPSQNSITGEHSQLLDDGHKKARNAYLNNSNYEEGDEYFDKNLALFEEEMDTRPKVSSLLNRMANYTNLTQGAKEHEEAENITEGKKKPTKSPQMGTFMGVYLPCLQNIFGVILFLRLTWVVGTAGILQAFAIVLICCCCTMLTAISMSAIATNGVVPAGGSYFMISRALGPEFGGAVGLCFYLGTTFAAAMYILGAIEIFLVYIVPRAAIFRSDDALKESAAMLNNMRVYGTAFLVLMVLVVFIGVRYVNKFASLFLACVIVSILAIYAGAIKSSFAPPHFPVCMLGNRTLSSRHLDICSKTKEVDNMTVPSKLWGFFCNSSQFFNATCDEYFVHNNVISIQGIPGLASGIITENLWSNYLPKGEIIEKPSAKSSDVLGNLNHEYVLADITTSFTLLVGIFFPSVTGIMAGSNRSGDLKDAQKSIPIGTILAILTTSFVYLSNVVLFGACIEGVVLRDKFGDAVKGNLVVGTLSWPSPWVIVIGSFFSTCGAGLQSLTGAPRLLQAIAKDNIIPFLRVFGHSKANGEPTWALLLTAAIAELGILIASLDLVAPILSMFFLMCYLFVNLACALQTLLRTPNWRPRFRYYHWALSFMGMSICLALMFISSWYYAIVAMVIAGMIYKYIEYQGAEKEWGDGIRGLSLSAARFALLRLEEGPPHTKNWRPQLLVLLKLDEDLHVKHPRLLTFASQLKAGKGLTIVGSVIVGNFLENYGDALAAEQTIKHLMEAEKVKGFCQLVVAAKLKEGISHLIQSCGLGGMKHNTVVMGWPNGWRQSEDARAWKTFIGTVRVTTAAHLALLVAKNVSFFPSNVEQFSEGNIDVWWIVHDGGMLMLLPFLLKQHKVWRKCSIRIFTVAQLEDNSIQMKKDLATFLYHLRIEAEVEVVEMHDSDISAYTYERTLMMEQRSQMLRHMRLSKTERDREAQLVKDRNSMLRLTSIGSDEDEETETYQEKVHMTWTKDKYMASRGQKVKSMEGFQDLLNMRPDQSNVRRMHTAVKLNEVIVNKSHEAKLVLLNMPGPPRNPEGDENYMEFLEVLTEGLERVLLVRGGGSEVITIYS
# B4: vesicular inhibitory amino acid transporter (SLC32A1) (protein, UniProt O35633 1-525)
# chain: MATLLRSKLTNVATSVSNKSQAKVSGMFARMGFQAATDEEAVGFAHCDDLDFEHRQGLQMDILKSEGEPCGDEGAEAPVEGDIHYQRGGAPLPPSGSKDQAVGAGGEFGGHDKPKITAWEAGWNVTNAIQGMFVLGLPYAILHGGYLGLFLIIFAAVVCCYTGKILIACLYEENEDGEVVRVRDSYVAIANACCAPRFPTLGGRVVNVAQIIELVMTCILYVVVSGNLMYNSFPGLPVSQKSWSIIATAVLLPCAFLKNLKAVSKFSLLCTLAHFVINILVIAYCLSRARDWAWEKVKFYIDVKKFPISIGIIVFSYTSQIFLPSLEGNMQQPSEFHCMMNWTHIAACVLKGLFALVAYLTWADETKEVITDNLPGSIRAVVNLFLVAKALLSYPLPFFAAVEVLEKSLFQEGSRAFFPACYGGDGRLKSWGLTLRCALVVFTLLMAIYVPHFALLMGLTGSLTGAGLCFLLPSLFHLRLLWRKLLWHQVFFDVAIFVIGGICSVSGFVHSLEGLIEAYRTNAED
# B5: peroxiredoxin-5 (PRDX5) (enzyme, UniProt P99029 49-210)
# chain: MAPIKVGDAIPSVEVFEGEPGKKVNLAELFKGKKGVLFGVPGAFTPGCSKTHLPGFVEQAGALKAKGAQVVACLSVNDVFVIEEWGRAHQAEGKVRLLADPTGAFGKATDLLLDDSLVSLFGNRRLKRFSMVIDNGIVKALNVEPDGTGLTCSLAPNILSQL
# B6: cysteine and glycine rich protein 1 (CSRP1) (protein, UniProt P97315 1-193)
# chain: MPNWGGGKKCGVCQKTVYFAEEVQCEGNSFHKSCFLCMVCKKNLDSTTVAVHGEEIYCKSCYGKKYGPKGYGYGQGAGTLSTDKGESLGIKHEEAPGHRPTTNPNASKFAQKIGGSERCPRCSQAVYAAEKVIGAGKSWHKSCFRCAKCGKGLESTTLADKDGEIYCKGCYAKNFGPKGFGFGQGAGALVHSE
# B7: plasminogen activator inhibitor 1 RNA-binding protein (SERBP1) (protein, UniProt Q9CY58 1-407)
# chain: MPGHLQEGFGCVVTNRFDQLFDDESDPFEVLKAAENKKKEAGGGGVGGPGAKSAAQAAAQTNSNAAGKQLRKESQKDRKNPLPPSVGVADKKEETQPPVALKKEGIRRVGRRPDQQLQGDGKLIDRRAERRPPRERRFEKPLEEKGEGGEFSVDRPIIERPIRGRGGLGRGRGGRGRGMGRGDGFDSRGKREFDRHSGSDRSSFSHYSGLKHEDKRGGSGSHNWGTVKDELTESPKYIQKQISYNCSDLDQSNVTEETPEGEEHPVADTENKENEVEEVKEEGPKEMTLDEWKAIQNKDRAKVEFNIRKPNEGADGQWKKGFVLHKSKSEEAHAEDSVMDHHFRKPANDITSQLEINFGDLGRPGRGGRGGRGGRGRGGRPNRGSRTDKSSASAPDVDDPEAFPALA
# Target: T1, Flag-tagged human Thioredoxin1 Cys35Ser mutant (flag-hTrx1C35S) (human) (UniProt P10599)
# T1 sequence: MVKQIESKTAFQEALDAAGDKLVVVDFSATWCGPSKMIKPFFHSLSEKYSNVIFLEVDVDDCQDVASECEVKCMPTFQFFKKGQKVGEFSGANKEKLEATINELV
# Assay: affinity purification with mass spectrometry
row,Binder,binding
1,B1,binds
2,B2,binds
3,B3,binds
4,B4,binds
5,B5,binds
6,B6,binds
7,B7,binds
